Measurements: PubChem BioAssay AID1347423 (Functional Genomics Laboratory (NCATS/FGL), 2020)
The campaign covered roughly 52,000 sequences. About 210 (0.4%) were called active.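 The calls were made as follows: active = gene whose silencing raises cell survival under the drug, median off-target-corrected z-score across its silencing RNAs 2 or more; inactive = the rest.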 Some of the results follow.

Assay: Resistance to Poly (ADP-Ribose) Polymerase inhibitor: Gene Identification via Genome-wide siRNA Screen
Settings: mouse BRCA2 R2336H ES cells, olaparib, CellTiter-Glo viability; active compounds read high
In short: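 Mouse BRCA2 R2336H ES cells were reverse-transfected with siRNA (20 nM final), treated at 48 h with 500 nM olaparib, and read by CellTiter-Glo after 72 h. Scores: MAD-based z per siRNA, median per gene, seed off-target correction.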

Sequence	z-score
GGCAGCACCUAAACAAAAGTT against Rpl24	inactive: -2.89
CAAUAACAGCGAAACAUCCTT against Scn4b	inactive: 2.18
GCUAUUGCCUCAUCUUAUGTT against Olfr654	inactive: 0.548
GGACAUGUGUCCAGUUUUCTT against Sspn	inactive: -0.313
GCUUCAAGUGAGUCUCACUTT against Nup35	inactive: 0.035
GAAAUGUACCUGCCUUUUCTT against D830030K20Rik	inactive: -0.0579
CCGGAAAACAAAAUUGCUATT against Obp1a	inactive: -0.697
GGAGCAUCAUUUUAACACUTT against Tubd1	inactive: 1.12
GGGAAGCAGAAAUGAGAAATT against Pdcd5	inactive: -0.672
CCUCAUGCAGCUCAAUCUATT against Prelp	inactive: 0.988
CGUAUUCCAAAUACACUUGTT against Meox2	inactive: -0.234
GGGCAAGUUUGUGGAGCUUTT against Akr7a5	inactive: 1.43
GGUGAUUCCAGACUCGGAUTT against 2700099C19Rik	inactive: -1.04
GUGGCACCUUUGGUGAAGCTT against Kiss1	inactive: -0.176
GGGUUAUGUCUGUGGAGCUTT against Bcl2l2	active: 1.54
GGUCAAAGCAAGAAGAUGATT against 9-Sep	inactive: -1.92
GCUCUACAUGUUUAUCACATT against Olfr311	inactive: 1.02
GGUUUUGGACACACUAUUUTT against Tmem34	inactive: -0.311
GGAUCAUCUCCUCUACUCUTT against Olfr394	inactive: 1.27
GCUUGUUCAGUUAACAAGATT against D19Ertd703e	inactive: 1.69
GGAAGCUGUGCUGAAUGGUTT against Atp5l	inactive: -0.307
GGUUUGUGUGGUUUUUCCUTT against 2810441K11Rik	inactive: 0.829

Some of the entries so far, bar-delimited:
Sequence | z-score
GCUAUUGCCUCAUCUUAUGTT against Olfr654 | inactive: 0.548
GGACAUGUGUCCAGUUUUCTT against Sspn | inactive: -0.313
GCUUCAAGUGAGUCUCACUTT against Nup35 | inactive: 0.035

The listing continues:

Sequence	z-score
GGAACACACAAUUUUAUCATT against 4933436I01Rik	inactive: 1.18
GCCGUAAGCUAGGAUCUGGTT against 1700065D16Rik	inactive: -0.682
CCGUAAAAAAUUCUGUAAGTT against Ube2l3	inactive: 0.615
GCCGCUGUCCAUCUUUAUGTT against Cecr6	inactive: 0.865
GCACUAAAACCCAAUCAGATT against Fmnl3	inactive: 0.207
GGCCAAAUACGUCAAGAGCTT against 1700012H17Rik	inactive: -0.203
GGGCACCUUAUACCAUAGATT against Bfar	inactive: -1.04
GGAACUGGCCAAGUUUAAATT against Ing3	inactive: -1.02
GGCUUGAUCCUUAGCUUAATT against Gpld1	inactive: 0.261
GCGGAGAUGUACACAAAAGTT against Nqo2	inactive: -0.708
GGCCAAAGCUGAUAUGACATT against Ankrd5	inactive: -0.152
GGAACACCUUGAAUGAUGUTT against 1700007I06Rik	inactive: -0.248
CCACAGUAUCAUGUAACUATT against Il1a	inactive: 1.39
CCUGUGAGAUAAGCGAAGCTT against Edil3	inactive: 0.417
GGAUUGGAUUUCUUAGUUCTT against Myo1c	inactive: 0.131
GGUAUUUCUACUGUGACAGTT against Olfr1055	inactive: -0.708
GGAGACCUUACCACUUGAATT against Ephx1	inactive: 0.474
GCCUCUUCAAUCACAUUUATT against Atp6v0a4	inactive: -0.588
CGACAUUGAUAUCGUGCGCTT against Gadd45g	inactive: -0.138
GGCAAUUUGGAUACCAGGATT against Zfp191	inactive: 2.09
GUAGACCGAAACCACUUCCTT against Refbp2	inactive: -2.01
GGCCAUUGGCUGGACAAAUTT against Mppe1	inactive: 0.756

Sequence	z-score
GGAAGUUUUGGCUUAGGCATT against 4930563P21Rik	inactive: -1.25
GGUUAACCCAAUGCCAGUGTT against Cyba	inactive: -1.74
GGUUCAGUCCUUCUUAACATT against 9130005N14Rik	inactive: -0.706
GGAGAACAAGGCAAAAGAATT against C330043M08	inactive: -1.89
CCAACACAACUGGUAAAAUTT against Plcb4	inactive: 1.27
GGGUUCUGUCACUAUAAUATT against Defb10	inactive: -0.183
GACGACUUGAUUGUAAGCATT against Amt	inactive: -0.918
GGAGAAUAUUGAGUCCUUCTT against Slc2a5	inactive: 0.782
GGAUGACGACUGCACUUACTT against Itgb4	inactive: 1.87
GCAACAAGCUGGUUGGCUUTT against 4933417A14Rik	inactive: 0.455
GCCAGACAAGCCUCAUUGATT against 2810406C15Rik	inactive: -2.26
CCUACUAUAGUACCAACCATT against Rnf111	inactive: -1.36
GGCACCCUCAAGAAAGCGUTT against Nol6	inactive: -0.473
GGUCCAAUCGACAACACUATT against Usp33	inactive: 2.9
GGAGGUCCAGAAGAAUUAUTT against Magmas	inactive: 0.877
CCUGCGUACGAAUUAAAGGTT against 2700059L22Rik	inactive: 0.748
GUCCCACUGUCCAGUUACATT against C630010N09	inactive: -1.62
GCAGACCAUGGCCUCAGAUTT against Sh3bp1	inactive: -0.95
GCCAUGAGGUCUGUUCUUATT against A130030D10Rik	inactive: 0.817
GCUGCGCAGUUUAGAAGAGTT against Rab24	inactive: 0.0743
GGUUGUGAUCUUGAAACUUTT against 4930451A13Rik	inactive: -1.44
GGAGAAGUACAACGCAGCGTT against Wnt7b	inactive: 0.625
